Data reported in patent US6767890B1, “Peptides having anti-cancer and anti-inflammatory activity” (priority 1998, dated 2004).

Tested on: ovalbumin-induced bronchoconstriction
Test: Pulmonary, Histamine H3 (ovalbumin-induced bronchoconstriction)
Type: in vivo, guinea pig
Details: N=3, Peptide PO 10 mg/kg, R-α-methylhistamine IV 30 mg/kg
Method: For in vivo assay, distilled water and saline was used as vehicle in oral and intraperitoneal administration, respectively. Dosing volume was 20 ml/kg for mice or 10 ml/kg for rats.
A group of Duncan Hartley derived male or female guinea pigs weighing 250±50 gms were anesthetized with pentobarbital sodium (50 mg/kg IP plus an additional 15 mg/kg IP if required) and succinylcholine chloride (2 mg/animal IP) was subsequently administered to prevent spontaneous respiration. Body temperature was maintained at 37° to 38° C. The trachea was cannulated and the guinea pig ventilated with a Harvard rodent respirator in a closed system. Tracheal pressure (TP) was recorded through a side-arm of the cannula connected to a P23ID Statham transducer. Respiratory rate set at 50 strokes/minute with a stroke volume (approximately 1 ml/100 g) sufficient to produce a baseline tracheal pressure of 6 cm H2O. Mean arterial pressure was monitored from a cannulated carotid artery, and heart rate was obtained from chest electrodes arranged for lead II. The jugular vein was cannulated for IV vehicle or drug administration in a volume of 1 ml/kg. Guinea pigs were sensitized with IP injections of ovalbumin 0.5 μg+Al(OH)3 1 mg (0.5 ml/animal) on days 1, and boosted with same dosage of ovalbumin and Al(OH)3 vaccine on day 8; and the animals were ready to be challenged between days 19 and 23 to get a submaximal ovalbumin (50 μg/kg IV)-induced bronchoconstriction, reflected as an increase in tracheal pressure (cm H2O). […]. Test substances were administered PO (10 mg/kg) at 60 minutes before ovalbumin (50 μg/kg IV) challenge in 3 guinea pigs. Tracheal pressure, blood pressure and heart rate were measured immediately before and after ovalbumin challenge.

SMILES: C[C@@H](N)Cc1c[nH]cn1 [R (α)-Methylhistamine, R-α-Methyl histamine]
- Blood Pressure Post-challenge (after ovalbumin challenge): 34.0 ± 4.2 mmHg
- Heart Rate Post-challenge (after ovalbumin challenge): 216 ± 0.0 beats/min
- Blood Pressure Pre-challenge (before ovalbumin challenge): 55.3 ± 1.3 mmHg
- Heart Rate Pre-challenge (before ovalbumin challenge): 232 ± 4.0 beats/min
